Test in all cases: NMR titration
Data set [1] deals with T1, Npl3 RRM2 Q214A (Saccharomyces cerevisiae) (UniProt Q01560).
T1 sequence (looked up): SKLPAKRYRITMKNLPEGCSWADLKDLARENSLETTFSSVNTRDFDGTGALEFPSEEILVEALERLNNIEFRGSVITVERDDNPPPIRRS
The following applies: 40 C, RRM2 buffer; residues 193-282.

Protein sequences, listed by entry. Tags and fused reporters are not part of them. Lines headed by an entry give the natural chain unless they say otherwise; changes in a name come on top.
UniProt Q01560: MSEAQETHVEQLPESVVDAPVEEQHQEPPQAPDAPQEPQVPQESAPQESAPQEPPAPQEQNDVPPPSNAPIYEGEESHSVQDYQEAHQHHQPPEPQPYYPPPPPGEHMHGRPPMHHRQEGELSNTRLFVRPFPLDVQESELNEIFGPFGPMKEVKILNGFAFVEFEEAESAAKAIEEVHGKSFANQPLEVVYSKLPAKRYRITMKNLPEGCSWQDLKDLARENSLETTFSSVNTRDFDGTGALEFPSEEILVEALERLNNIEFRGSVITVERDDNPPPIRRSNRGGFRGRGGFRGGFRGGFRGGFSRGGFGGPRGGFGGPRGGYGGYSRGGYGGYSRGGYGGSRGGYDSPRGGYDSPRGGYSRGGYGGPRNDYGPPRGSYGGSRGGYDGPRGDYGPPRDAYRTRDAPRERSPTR

Data set [2] deals with T2, Npl3 RRM2 K217A (Saccharomyces cerevisiae) (UniProt Q01560).
T2 sequence (looked up): T1 sequence (looked up) with A22Q, K25A
Particulars: 40 C, RRM2 buffer; residues 193-282.

Data set [3] has as its target T3, Npl3 RRM2 Q214A K217A (Saccharomyces cerevisiae) (UniProt Q01560).
T3 sequence (looked up): T1 sequence (looked up) with K25A
Particulars: 40 C, RRM2 buffer; residues 193-282.

In data set [4] the target is T4, Npl3 RRM1 F128A (Saccharomyces cerevisiae) (UniProt Q01560).
T4 sequence (looked up): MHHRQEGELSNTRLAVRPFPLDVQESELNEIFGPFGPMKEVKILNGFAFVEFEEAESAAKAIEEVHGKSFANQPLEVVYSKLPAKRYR
The following applies: 40 C, RRM1 buffer; residues 114-201.

From paper doi:10.1101/2022.05.24.493251 come the findings set out here.

Changes are numbered by the printed parent chain. The exact form of at least one protein or probe is not confirmed. The comparison behind a weaker result is the experiment's own reference, which may not be listed here. At least one verdict rests on a figure or table, not on a statement of the authors. Where a protein sequence is shown, tags need not be part of it.

With ATGGTC, the binding result in data set [1] and in data set [2] was “binds more weakly” throughout. Turning to AUGGUC, in data set [3], the binding result is “binds more weakly”. Take CCCCCC [polyC 6mer]: in data set [4], the binding result is on record as “binds more weakly”.
